Measurements reported in PMC4005696, “Type III restriction endonucleases are heterotrimeric: comprising one helicase–nuclease subunit and a dimeric methyltransferase that binds only one specific DNA” (Nucleic Acids Research, 2014).
These are yes or no findings as the source states them, for the method shown. Some entries that bind do so weakly or less than the wild type. Sequences can lack the tags named with a protein.

Key:
[1] = biological target: T1, EcoP15I Res subunit with C-terminal Avi-tag, biotinylated (Escherichia coli) (UniProt Q5ZND2); experiment: native MS; EcoPI and biotinylated EcoP15I with specific 50-mer DNA; data not shown; both purified
T1 sequence (chain, biotin on the Avi-tag (co-expressed biotin ligase)): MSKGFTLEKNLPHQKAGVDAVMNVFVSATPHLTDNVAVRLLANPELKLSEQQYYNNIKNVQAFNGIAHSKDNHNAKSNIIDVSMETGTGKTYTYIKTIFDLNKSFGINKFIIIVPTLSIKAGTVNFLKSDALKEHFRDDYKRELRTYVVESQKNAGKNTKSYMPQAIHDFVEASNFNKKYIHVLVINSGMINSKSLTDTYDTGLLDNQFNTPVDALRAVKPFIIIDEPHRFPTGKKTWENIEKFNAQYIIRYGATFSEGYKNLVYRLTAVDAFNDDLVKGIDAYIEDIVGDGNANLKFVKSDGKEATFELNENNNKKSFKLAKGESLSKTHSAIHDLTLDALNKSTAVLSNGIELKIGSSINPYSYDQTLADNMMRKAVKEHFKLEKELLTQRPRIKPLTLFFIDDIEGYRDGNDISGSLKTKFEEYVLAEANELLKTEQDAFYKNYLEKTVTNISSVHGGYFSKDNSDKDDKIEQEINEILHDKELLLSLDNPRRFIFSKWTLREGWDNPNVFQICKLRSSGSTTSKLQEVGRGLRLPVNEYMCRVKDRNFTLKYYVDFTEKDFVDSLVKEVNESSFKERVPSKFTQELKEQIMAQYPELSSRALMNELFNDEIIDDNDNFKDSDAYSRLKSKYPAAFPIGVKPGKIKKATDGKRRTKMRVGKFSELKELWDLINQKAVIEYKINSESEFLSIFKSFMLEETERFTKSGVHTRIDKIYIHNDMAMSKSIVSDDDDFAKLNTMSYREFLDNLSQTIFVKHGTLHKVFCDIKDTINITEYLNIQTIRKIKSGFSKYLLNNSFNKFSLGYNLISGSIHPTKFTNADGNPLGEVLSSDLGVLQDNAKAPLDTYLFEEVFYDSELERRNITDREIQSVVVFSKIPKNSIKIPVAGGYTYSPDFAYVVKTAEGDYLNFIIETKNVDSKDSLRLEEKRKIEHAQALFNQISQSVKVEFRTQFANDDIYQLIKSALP

[2] = biological target: T2, EcoP15I Res subunit (wild type, untagged) (Escherichia coli) (UniProt Q5ZND2); experiment: SEC-MALS; repeated in modified NEBuffer4: 20 mM Tris–acetate, pH 7.9, 10 mM CaCl2, 50 mM potassium acetate and 1 mM DTT; data not shown; both purified
T2 sequence: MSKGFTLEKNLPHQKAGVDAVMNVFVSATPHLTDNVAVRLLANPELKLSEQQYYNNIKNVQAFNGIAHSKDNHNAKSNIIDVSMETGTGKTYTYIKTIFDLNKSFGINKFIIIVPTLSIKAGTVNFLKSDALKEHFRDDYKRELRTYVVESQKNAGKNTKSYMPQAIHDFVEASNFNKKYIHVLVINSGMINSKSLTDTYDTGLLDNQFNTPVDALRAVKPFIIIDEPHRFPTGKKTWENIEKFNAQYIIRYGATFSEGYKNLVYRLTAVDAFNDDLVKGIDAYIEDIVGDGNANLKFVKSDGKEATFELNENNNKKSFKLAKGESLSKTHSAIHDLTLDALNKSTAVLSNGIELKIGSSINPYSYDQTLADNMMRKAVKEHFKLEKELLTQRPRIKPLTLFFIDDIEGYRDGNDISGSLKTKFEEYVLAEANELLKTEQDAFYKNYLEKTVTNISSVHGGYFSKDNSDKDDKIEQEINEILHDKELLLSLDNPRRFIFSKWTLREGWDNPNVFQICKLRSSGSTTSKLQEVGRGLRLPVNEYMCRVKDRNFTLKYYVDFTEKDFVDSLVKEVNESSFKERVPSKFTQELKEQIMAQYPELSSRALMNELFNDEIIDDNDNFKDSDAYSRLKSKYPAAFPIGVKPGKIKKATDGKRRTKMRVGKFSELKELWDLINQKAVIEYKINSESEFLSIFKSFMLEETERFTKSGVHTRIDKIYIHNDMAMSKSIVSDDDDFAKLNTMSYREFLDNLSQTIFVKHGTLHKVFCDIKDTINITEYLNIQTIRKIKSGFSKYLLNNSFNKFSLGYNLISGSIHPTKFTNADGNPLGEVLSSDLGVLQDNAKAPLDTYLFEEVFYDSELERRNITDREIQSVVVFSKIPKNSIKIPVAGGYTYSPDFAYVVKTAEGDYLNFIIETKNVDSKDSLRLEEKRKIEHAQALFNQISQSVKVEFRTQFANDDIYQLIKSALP

[3] = biological target: T2, EcoP15I Res subunit (wild type, untagged) (Escherichia coli); experiment: SEC + other: heparin chromatography; enzyme samples with sDNA and ATP, fractions run on SDS–PAGE gels; data not shown; both purified
[4] = biological target: T1, EcoP15I Res subunit with C-terminal Avi-tag, biotinylated (Escherichia coli); experiment: SEC-MALS; 0.5–1.0 mg/ml (1.25–2.5 µM) enzyme, Superdex 200, Standard Assay Buffer minus BSA (50 mM Tris–HCl pH 8.0, 50 mM KCl, 10 mM MgCl2, 1 mM DTT), room temperature; enzyme alone or with excess Hex-labelled specific 50-mer DNA, with or without 1 mM ATP; both purified

Measured: binding

B1: EcoP15I Mod subunit (untagged) (enzyme, Escherichia coli, UniProt P12364 1-644, looked up)
chain: MKKETIFSEVETANSKQLAVLKANFPQCFDKNGAFIQEKLLEIIRASEVELSKESYSLNWLGKSYARLLANLPPKTLLAEDKTHNQQEENKNSQHLLIKGDNLEVLKHMVNAYAEKVKMIYIDPPYNTGKDGFVYNDDRKFTPEQLSELAGIDLDEAKRILEFTTKGSSSHSAWLTFIYPRLYIARELMREDGTIFISIDHNEFSQLKLVCDEIFGEQNHVGDLVWKNATDNNPSNIAVEHEYIIVYTKNKEQLISEWKSNISDVKNLLVNIGEEFASKYTGNELQEKYTQWFREHRSELWPLDRYKYIDKDGIYTGSQSVHNPGKEGYRYDIIHPKTKKPCKQPLMGYRFPLDTMDRLLSEEKIIFGDDENKIIELKVYAKDYKQKLSSVIHLDGRVATNELKELFPEMTQPFTNAKTIKLVEDLISFACDGEGIVLDFFAGSGTTAHTVFNLNNKNKTSYQFITVQLDEPTKDKSDAMKHGYNTIFDLTKERLIRASKKNRDQGFKVYQLMPDFRAKDESELTLSNHTFFDDVVLTPEQYDTLLTTWCLYDGSLLTTPIEDVDLGGYKAHLCDGRLYLIAPNFTSEALKALLQKVDSDKDFAPNKVVFYGSNFESAKQMELNEALKSYANKKSIELDLVVRN
notes: Mod (modification) subunit of the Type III restriction endonuclease EcoP15I, Escherichia coli; also called Mod2 (as dimer); source: with biotinylated Res: avidin resin, Mono-Q
binds: all assays above
